Two substances from publication PMC11898277 can be followed below.

The chains behind the UniProt entries cited, without tags or fusion partners. Residues count along the entry.
UniProt P29595, residues 1-76: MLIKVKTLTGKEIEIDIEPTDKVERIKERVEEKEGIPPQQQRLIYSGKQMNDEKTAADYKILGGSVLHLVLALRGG
UniProt Q8VE73: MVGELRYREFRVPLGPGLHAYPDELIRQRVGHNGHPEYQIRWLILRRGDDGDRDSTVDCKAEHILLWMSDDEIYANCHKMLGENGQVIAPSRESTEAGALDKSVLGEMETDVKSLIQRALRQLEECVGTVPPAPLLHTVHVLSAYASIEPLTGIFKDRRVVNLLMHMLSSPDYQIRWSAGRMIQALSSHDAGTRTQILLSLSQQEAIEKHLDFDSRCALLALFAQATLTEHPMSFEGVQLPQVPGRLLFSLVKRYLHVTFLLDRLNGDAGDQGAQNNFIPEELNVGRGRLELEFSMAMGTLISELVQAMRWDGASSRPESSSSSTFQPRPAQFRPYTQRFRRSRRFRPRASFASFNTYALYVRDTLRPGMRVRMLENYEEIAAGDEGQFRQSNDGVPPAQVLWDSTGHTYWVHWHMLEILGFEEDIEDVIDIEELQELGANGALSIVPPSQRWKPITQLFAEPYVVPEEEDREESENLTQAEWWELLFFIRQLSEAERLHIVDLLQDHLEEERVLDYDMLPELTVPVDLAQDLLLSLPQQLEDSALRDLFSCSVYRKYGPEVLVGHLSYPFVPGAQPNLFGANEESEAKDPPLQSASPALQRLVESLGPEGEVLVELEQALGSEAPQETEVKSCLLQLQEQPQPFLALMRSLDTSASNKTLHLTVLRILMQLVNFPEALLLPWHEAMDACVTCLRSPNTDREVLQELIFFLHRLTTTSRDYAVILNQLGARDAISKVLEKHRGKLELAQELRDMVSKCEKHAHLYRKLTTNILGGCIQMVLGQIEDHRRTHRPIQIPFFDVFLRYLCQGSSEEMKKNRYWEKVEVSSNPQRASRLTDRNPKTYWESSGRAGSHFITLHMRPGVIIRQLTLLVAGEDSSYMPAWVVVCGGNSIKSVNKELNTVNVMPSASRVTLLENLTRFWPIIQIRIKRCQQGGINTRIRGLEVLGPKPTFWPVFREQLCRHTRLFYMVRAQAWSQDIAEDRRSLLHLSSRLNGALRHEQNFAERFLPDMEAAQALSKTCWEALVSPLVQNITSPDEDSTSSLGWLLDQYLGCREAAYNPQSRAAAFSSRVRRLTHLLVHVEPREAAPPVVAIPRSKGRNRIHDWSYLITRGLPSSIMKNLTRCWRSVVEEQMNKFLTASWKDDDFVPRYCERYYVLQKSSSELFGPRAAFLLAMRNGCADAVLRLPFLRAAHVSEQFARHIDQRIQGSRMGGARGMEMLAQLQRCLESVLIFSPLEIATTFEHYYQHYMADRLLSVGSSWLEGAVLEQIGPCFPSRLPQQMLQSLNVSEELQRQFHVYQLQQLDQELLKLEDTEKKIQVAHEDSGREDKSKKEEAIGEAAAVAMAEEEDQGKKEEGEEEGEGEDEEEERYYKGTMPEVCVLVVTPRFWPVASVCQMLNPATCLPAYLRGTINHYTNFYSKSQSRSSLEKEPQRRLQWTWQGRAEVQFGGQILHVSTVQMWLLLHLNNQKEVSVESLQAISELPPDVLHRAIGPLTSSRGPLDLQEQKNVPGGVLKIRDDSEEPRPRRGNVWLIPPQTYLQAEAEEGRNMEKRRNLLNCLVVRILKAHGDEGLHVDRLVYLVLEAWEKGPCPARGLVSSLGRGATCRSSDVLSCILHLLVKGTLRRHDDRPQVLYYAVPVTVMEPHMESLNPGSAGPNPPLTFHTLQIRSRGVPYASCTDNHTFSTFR
UniProt Q80TT8: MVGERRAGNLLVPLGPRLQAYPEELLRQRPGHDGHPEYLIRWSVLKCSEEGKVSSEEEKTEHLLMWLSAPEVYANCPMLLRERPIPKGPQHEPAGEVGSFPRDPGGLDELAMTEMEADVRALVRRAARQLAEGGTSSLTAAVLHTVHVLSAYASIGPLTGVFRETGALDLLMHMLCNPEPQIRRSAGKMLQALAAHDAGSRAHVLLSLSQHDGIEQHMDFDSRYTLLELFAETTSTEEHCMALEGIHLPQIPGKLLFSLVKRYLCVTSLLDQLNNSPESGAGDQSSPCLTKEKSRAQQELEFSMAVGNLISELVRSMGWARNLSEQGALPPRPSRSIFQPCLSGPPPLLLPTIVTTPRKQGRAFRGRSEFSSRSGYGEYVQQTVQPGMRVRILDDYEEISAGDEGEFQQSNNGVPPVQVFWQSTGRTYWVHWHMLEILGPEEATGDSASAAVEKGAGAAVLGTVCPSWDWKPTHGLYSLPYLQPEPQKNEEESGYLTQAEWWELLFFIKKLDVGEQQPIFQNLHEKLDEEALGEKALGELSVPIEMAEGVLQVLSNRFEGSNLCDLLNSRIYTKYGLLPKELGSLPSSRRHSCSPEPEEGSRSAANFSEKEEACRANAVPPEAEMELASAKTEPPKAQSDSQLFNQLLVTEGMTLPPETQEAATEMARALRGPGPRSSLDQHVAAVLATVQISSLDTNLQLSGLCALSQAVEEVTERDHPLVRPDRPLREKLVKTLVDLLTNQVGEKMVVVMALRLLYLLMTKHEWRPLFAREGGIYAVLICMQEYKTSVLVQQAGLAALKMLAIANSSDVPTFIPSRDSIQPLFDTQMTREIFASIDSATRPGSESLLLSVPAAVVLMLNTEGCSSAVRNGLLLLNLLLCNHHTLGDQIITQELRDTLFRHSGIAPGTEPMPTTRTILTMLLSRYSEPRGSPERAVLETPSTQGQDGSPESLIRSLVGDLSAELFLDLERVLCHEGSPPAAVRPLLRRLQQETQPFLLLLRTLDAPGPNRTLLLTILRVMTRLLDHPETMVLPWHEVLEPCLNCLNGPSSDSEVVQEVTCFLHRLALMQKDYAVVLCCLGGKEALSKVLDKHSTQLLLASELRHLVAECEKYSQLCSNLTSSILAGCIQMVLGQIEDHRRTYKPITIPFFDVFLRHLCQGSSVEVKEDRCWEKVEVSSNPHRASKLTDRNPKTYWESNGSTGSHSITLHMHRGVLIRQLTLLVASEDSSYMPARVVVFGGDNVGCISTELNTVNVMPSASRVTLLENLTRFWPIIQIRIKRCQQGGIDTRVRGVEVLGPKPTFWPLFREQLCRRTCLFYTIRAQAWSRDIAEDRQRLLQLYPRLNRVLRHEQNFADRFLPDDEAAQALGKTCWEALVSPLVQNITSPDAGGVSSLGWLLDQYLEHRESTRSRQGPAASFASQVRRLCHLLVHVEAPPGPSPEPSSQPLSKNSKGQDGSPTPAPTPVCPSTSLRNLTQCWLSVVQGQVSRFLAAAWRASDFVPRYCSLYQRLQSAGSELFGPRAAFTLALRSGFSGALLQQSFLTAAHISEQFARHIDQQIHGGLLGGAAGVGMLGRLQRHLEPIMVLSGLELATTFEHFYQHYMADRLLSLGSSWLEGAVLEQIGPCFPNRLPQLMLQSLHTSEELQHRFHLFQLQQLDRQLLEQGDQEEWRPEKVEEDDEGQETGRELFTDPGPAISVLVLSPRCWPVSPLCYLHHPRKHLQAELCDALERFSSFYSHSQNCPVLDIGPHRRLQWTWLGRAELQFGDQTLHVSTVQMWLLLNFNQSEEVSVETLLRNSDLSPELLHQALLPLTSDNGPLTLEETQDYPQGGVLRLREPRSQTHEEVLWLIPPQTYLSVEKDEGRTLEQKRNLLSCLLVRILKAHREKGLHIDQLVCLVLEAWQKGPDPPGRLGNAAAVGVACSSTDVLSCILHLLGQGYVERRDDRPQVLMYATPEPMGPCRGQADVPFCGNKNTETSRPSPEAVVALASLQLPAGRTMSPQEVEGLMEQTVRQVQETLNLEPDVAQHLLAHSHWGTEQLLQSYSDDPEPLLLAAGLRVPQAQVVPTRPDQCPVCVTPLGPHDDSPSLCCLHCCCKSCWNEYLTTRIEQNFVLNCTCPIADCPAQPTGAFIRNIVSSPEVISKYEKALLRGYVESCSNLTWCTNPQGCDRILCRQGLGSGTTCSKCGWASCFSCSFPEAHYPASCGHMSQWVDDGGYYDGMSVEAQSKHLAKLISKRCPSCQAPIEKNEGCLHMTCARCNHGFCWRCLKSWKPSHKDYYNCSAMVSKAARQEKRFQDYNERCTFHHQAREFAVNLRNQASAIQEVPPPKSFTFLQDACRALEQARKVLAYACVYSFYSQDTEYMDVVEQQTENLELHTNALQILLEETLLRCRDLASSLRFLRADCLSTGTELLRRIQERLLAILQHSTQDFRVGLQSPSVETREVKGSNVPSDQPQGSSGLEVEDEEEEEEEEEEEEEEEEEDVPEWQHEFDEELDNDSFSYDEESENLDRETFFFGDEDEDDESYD

These are yes or no findings as the source states them, for the method shown. Binding seen in cells or lysates may run through a third protein. These calls come from enrichment with a bait or labelling near it, and not all partners need be listed.

The assay concerns the target Neural precursor cell-expressed developmentally down-regulated 8 (NEDD8) (mouse (endogenous in testis)) (UniProt P29595). Description: affinity purification with mass spectrometry; lysate of 16 dpp mouse testes in IP lysis buffer; NEDD8 antibody or non-specific IgG, 3 h at 4 C, magnetic Protein A beads overnight at 4 C; LC-MS/MS of the precipitate.

With CUL7 (from UniProt Q8VE73 1-1689), the binding entry is reported as “binds”.
Regarding CUL9 (from UniProt Q80TT8 1-2530), the binding result is recorded as “binds”.
